Source: article doi:10.1101/2025.05.14.653660
These are yes or no findings as the source states them, for the method shown. In cells and extracts the contact can be indirect. Some entries that bind do so weakly or less than the wild type. Sequences can lack the tags named with a protein. Values belong to the molecule of their own block, whether it stands above or below them.

Sequences of proteins named here, by UniProt entry; tags and fusion partners are left off. A change or cut given only in a name is not applied to a line headed by its entry.
UniProt Q96KQ7: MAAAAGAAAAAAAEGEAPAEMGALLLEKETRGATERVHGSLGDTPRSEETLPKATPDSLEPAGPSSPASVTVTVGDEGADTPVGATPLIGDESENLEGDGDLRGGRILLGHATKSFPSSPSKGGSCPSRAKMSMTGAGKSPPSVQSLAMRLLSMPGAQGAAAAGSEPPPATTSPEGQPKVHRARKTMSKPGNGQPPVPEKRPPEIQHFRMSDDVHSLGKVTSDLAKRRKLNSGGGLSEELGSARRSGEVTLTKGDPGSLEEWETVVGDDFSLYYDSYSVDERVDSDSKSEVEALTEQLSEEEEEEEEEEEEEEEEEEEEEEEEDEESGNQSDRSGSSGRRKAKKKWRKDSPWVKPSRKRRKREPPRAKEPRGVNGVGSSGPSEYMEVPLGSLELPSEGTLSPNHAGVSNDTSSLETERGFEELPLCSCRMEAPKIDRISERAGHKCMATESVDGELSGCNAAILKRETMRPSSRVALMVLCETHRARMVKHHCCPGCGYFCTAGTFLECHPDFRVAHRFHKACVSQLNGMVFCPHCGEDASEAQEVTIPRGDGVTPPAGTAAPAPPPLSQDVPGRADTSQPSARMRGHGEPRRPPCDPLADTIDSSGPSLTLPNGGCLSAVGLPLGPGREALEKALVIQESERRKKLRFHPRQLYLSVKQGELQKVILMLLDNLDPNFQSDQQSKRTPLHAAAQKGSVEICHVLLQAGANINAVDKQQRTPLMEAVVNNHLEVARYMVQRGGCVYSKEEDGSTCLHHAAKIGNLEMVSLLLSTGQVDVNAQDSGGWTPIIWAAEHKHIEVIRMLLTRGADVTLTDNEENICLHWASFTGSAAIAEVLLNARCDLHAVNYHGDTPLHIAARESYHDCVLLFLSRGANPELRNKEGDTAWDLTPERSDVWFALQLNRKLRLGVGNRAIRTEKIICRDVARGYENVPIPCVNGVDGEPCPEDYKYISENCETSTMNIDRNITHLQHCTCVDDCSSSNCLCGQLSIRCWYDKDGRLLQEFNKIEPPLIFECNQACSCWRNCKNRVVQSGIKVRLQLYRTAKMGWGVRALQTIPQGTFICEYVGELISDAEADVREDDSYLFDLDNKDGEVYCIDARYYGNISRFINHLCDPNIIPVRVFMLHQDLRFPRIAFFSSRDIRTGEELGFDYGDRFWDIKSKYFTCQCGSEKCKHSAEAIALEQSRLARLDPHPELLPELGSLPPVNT

Target: T1, FLAG-tagged RUNX1T1 (UniProt Q06455)
T1 sequence: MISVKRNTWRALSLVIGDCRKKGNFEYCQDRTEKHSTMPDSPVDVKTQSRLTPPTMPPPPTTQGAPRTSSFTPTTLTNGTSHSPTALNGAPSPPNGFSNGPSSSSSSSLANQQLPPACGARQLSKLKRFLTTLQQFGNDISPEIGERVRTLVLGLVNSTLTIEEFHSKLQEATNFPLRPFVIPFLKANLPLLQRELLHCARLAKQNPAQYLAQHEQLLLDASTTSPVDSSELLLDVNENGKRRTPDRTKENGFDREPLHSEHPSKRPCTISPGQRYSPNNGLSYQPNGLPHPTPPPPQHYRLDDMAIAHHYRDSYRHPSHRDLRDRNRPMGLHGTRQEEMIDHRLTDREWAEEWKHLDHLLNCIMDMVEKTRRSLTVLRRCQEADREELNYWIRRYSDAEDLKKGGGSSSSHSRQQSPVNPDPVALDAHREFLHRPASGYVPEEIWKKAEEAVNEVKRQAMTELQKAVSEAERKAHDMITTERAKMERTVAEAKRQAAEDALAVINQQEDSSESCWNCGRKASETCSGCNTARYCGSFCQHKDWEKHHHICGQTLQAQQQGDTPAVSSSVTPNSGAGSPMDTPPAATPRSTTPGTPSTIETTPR
Assay: co-IP

- binding: binds
Molecule: EHMT2/G9A (from UniProt Q96KQ7 1-1210)

- binding: binds
B1: LASP1 (protein, UniProt Q14847 1-261)
chain: MNPNCARCGKIVYPTEKVNCLDKFWHKACFHCETCKMTLNMKNYKGYEKKPYCNAHYPKQSFTMVADTPENLRLKQQSELQSQVRYKEEFEKNKGKGFSVVADTPELQRIKKTQDQISNIKYHEEFEKSRMGPSGGEGMEPERRDSQDGSSYRRPLEQQQPHHIPTSAPVYQQPQQQPVAQSYGGYKEPAAPVSIQRSAPGGGGKRYRAVYDYSAADEDEVSFQDGDTIVNVQQIDDGWMYGTVERTGDTGMLPANYVEAI
